# Laboratory results taken from US20090061443A1.
# Amino acid sequences for entries named in this document (tags omitted). A change or cut given only in a name is not applied to a line headed by its entry.
# UniProt Q13492: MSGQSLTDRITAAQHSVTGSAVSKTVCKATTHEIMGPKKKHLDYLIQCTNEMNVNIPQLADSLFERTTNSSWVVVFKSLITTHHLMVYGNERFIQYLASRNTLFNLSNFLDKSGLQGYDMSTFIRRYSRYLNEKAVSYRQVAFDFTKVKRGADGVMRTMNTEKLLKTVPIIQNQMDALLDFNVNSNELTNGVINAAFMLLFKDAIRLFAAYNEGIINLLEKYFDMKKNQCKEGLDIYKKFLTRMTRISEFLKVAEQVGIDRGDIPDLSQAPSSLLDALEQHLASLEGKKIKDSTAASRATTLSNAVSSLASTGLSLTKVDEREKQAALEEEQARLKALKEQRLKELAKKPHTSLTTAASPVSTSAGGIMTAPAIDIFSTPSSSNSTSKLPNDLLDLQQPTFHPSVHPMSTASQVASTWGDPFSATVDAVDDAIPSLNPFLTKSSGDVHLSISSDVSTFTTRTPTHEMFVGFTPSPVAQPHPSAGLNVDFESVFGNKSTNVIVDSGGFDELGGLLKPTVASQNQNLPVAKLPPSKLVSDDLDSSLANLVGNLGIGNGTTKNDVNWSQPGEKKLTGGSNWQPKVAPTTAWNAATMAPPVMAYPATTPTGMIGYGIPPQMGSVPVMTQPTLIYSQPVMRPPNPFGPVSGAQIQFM
# UniProt P55197: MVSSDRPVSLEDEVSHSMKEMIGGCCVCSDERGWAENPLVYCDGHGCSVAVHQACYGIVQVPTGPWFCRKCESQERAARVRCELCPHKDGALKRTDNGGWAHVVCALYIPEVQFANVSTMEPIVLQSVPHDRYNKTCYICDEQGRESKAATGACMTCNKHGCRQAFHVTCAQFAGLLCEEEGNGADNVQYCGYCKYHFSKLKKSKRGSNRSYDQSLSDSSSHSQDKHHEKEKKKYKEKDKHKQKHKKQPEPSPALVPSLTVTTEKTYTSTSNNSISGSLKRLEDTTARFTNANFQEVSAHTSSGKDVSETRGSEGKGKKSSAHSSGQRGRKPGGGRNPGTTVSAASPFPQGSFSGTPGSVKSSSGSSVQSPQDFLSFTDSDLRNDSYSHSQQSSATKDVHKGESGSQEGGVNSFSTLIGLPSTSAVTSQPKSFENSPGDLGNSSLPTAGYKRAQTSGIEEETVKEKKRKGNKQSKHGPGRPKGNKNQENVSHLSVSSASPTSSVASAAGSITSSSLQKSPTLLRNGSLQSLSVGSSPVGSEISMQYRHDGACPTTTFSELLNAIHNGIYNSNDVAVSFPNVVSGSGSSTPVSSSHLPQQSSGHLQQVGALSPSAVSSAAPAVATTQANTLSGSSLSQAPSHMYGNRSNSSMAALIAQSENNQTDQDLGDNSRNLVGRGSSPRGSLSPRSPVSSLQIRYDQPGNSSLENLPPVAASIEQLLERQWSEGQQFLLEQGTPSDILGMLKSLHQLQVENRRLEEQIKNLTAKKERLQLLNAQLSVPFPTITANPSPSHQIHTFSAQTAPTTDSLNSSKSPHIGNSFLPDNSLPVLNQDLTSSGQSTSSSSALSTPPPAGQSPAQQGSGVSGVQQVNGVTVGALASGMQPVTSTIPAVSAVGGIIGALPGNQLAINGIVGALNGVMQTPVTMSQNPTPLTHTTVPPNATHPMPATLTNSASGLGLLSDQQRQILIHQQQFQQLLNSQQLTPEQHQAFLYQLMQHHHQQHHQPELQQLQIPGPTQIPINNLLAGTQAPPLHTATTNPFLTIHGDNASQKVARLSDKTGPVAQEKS
# UniProt Q8TEK3: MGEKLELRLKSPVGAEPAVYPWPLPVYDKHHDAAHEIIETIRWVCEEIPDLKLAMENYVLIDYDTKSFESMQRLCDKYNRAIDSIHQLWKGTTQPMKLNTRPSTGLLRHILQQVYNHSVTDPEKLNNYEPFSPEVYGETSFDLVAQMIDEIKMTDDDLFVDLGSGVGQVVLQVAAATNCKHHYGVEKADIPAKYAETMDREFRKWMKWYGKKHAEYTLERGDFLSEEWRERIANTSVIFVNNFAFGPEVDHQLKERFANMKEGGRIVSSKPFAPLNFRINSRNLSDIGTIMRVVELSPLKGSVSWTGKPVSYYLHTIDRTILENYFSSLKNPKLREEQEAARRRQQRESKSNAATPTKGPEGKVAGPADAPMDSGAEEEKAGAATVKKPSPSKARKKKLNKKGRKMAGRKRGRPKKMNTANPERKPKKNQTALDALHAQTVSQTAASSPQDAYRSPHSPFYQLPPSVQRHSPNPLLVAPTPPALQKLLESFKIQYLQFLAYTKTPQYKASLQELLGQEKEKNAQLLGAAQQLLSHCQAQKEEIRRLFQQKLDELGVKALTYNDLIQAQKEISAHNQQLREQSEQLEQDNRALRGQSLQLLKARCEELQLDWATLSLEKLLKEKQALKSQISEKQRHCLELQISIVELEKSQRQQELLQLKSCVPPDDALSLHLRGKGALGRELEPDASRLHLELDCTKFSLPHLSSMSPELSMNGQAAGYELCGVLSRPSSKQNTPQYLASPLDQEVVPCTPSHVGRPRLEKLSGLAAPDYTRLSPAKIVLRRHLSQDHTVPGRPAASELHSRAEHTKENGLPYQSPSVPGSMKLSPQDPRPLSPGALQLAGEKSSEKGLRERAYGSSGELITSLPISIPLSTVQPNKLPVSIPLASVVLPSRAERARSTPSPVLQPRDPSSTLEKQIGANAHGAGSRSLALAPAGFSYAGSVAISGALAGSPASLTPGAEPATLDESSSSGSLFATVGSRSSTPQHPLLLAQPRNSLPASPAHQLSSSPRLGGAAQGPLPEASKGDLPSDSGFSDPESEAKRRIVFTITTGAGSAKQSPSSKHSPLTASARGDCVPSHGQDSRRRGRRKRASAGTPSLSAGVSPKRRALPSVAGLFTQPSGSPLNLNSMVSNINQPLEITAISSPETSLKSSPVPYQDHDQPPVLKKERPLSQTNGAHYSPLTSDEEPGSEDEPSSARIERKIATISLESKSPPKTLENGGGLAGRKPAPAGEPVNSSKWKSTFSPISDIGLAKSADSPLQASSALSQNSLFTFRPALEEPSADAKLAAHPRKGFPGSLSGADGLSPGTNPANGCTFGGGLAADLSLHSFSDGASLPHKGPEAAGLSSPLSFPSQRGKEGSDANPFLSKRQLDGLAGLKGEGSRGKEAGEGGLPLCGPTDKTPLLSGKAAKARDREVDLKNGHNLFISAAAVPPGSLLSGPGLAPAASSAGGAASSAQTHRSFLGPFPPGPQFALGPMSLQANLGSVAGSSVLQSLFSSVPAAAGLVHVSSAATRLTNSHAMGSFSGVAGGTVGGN
# No constants are given. Whether binding was seen depends on the method and setting. Binding seen in cells or lysates may run through a third protein. Some binding calls cover weakened binding; strength is not graded here.
# How the values were obtained:
# [1] = molecular target: T1, Flag-CALM-AF10 fusion protein (wild-type) (human) (UniProt Q13492+P55197); assay: co-immunoprecipitation from transfected 293T cells (anti-Flag M2 agarose, Western blot)
# [2] = molecular target: T1, Flag-CALM-AF10 fusion protein (wild-type) (human); assay: co-immunoprecipitation from transfected 293T cells (anti-Flag M2 agarose, wash at 500 mM KCl, Western blot with hDOT1L and Flag antibodies)
substance,measurement,setting,value
hDOT1L (human DOT1-like protein) (from UniProt Q8TEK3 1-1537) (enzyme),binding,[1],binds
same,binding,[2],binds
